Experimental data published in patent US20150094359.
For part of these data: At least one result comes from cells or an extract, where the contact may be indirect. For part of these data: For at least one entry, the source does not settle the construct or the ends of the probe.

The chains behind the UniProt entries cited, without tags or fusion partners. Where a name states a change or a piece, a line headed by the entry shows the natural chain unless it says otherwise.
UniProt Q04609: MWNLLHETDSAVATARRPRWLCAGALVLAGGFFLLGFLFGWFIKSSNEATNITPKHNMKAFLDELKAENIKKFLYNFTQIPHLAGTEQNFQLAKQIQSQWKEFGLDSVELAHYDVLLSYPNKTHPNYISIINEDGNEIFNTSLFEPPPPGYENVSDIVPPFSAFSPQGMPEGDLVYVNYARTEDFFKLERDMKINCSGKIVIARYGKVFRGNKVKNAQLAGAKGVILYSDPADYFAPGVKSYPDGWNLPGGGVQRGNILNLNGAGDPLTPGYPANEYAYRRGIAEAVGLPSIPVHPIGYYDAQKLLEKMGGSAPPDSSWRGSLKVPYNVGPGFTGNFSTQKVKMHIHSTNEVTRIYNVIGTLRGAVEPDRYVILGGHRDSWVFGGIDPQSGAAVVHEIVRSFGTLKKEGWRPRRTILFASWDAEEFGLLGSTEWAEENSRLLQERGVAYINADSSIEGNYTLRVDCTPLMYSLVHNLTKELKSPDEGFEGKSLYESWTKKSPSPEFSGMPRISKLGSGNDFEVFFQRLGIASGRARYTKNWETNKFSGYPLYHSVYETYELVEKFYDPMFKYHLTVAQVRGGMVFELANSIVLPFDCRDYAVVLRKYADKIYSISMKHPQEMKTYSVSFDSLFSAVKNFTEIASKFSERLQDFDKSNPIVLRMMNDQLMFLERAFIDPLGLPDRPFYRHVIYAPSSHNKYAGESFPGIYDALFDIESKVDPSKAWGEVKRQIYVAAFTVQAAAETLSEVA

Legend:
[1] = molecular target: PSMA (prostate specific membrane antigen) extracellular domain (Homo sapiens) (UniProt Q04609); assay: SELEX; details: selected after 10 forward and 2 counter rounds; 100 mM NaCl, 20 mM Tris, 2 mM MgCl2, 5 mM KCl, 1 mM CaCl2, 0.2% Tween-20, pH 8, 37 C; purified recombinant protein; single-stranded DNA
[2] = molecular target: PSMA (prostate specific membrane antigen) (UniProt Q04609); assay: competition with a labelled probe; details: pre-incubation with anti-PSMA antibody J591 attenuated DAC uptake in C4-2 cells; protein on the cell surface; protein details: endogenous on C4-2 cells; folded or branched DNA
[3] = molecular target: PSMA (prostate specific membrane antigen) (UniProt Q04609); assay: flow cytometry; details: 1 uM DAC, 2 h, 37 C; uptake in PSMA+ C4-2 cells, minimal in PSMA-null PC3 cells (confocal); protein on the cell surface; protein details: endogenous on C4-2 cells; folded or branched DNA

For “GCGTTTTCGCTTTTGCGTTTTGGGTCATCTGCTTACGATAGCAATGCT [SZTI01]”, the selection result [1] was “selected”.

“GCGTTTTCGCTTTTGCGTTTTGGGTCATCTGCTTACGATAGCAATGCTCGGCAAAAAAAAAAAAAAAAGCCG / GCGTTTTCGCTTTTGCGTTTTGGGTCATCTGCTTACGATAGCAATGCTCGGCTTTTTTTTTTTTTTTTGCCG”: binds [2]; binds [3].
